From patent US20070142386A1, “New 2-substituted, 4-amino-thiazolo[4,5-d] pyrimidines, useful as chemokine receptor antagonists, esp. cx3cr1” (AstraZeneca, priority 2003, published 2007)
Some results were stated once for a whole list of compounds, not compound by compound.

Molecular target: T1, human fractalkine receptor (hCX3CR1) (Homo sapiens, UniProt P49238)
T1 construct: expressed in transfected cells; host or cells: HEKS 293 (human embryonic kidney suspension) cells stably expressing the chimeric G-protein Gαqi5; Membranes were used in the assay
T1 sequence (P49238 1-355): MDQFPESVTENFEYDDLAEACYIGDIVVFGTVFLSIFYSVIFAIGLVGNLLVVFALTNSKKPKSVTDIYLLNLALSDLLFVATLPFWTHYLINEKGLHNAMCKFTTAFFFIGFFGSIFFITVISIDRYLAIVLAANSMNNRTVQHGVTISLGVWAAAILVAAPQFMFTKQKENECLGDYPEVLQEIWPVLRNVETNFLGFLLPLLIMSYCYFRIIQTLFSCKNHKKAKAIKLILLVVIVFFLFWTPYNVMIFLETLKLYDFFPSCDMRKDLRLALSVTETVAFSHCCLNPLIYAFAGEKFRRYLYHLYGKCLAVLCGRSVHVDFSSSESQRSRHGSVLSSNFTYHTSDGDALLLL
Assay: Ligand binding assay (competition binding with [125I]-fractalkine on cell membranes)
Settings: 10 pM [125I]-fractalkine, membranes of HEKS 293 cells expressing hCX3CR1, 25° C., 24 h

Structure (SMILES)	Ki
O=c1[nH]c2nc(OCc3ccccc3)nc(NC3(CO)CCCC3)c2s1 [Example 32, 5-(Benzyloxy)-7-{[1-(hydroxymethyl)cyclopentyl]amino}-[1,3]thiazolo[4,5-d]pyrimidin-2(3H)-one]	< 10 µM
CC(C)CC(CO)Nc1nc([S+]([O-])CCc2ccccc2Br)nc2[nH]c(=O)sc12 [Example 44, 5-{[2-(2-Bromophenyl)ethyl]-(RS,SS)-sulfinyl}-7-{[(1R)-1-(hydroxymethyl)-3-methylbutyl]amino}[1,3]thiazolo[4,5-d]pyrimidin-2(3H)-one]	< 10 µM
CCC[C@H](CO)Nc1nc(OCc2ccccc2)nc2[nH]c(=O)sc12 [Example 28, 5-(Benzyloxy)-7-{[(1R)-1-(hydroxymethyl)butyl]amino}[1,3]thiazolo[4,5-d]pyrimidin-2(3H)-one]	< 10 µM
CC(C)CC(CO)Nc1nc([S+]([O-])Cc2ccc(Cl)cc2)nc2[nH]c(=O)sc12 [Example 48, 5-[(4-Chlorobenzyl)-(RS,SS)-sulfinyl]-7-{[(1R)-1-(hydroxymethyl)-3-methylbutyl]amino}[1,3]thiazolo[4,5-d]pyrimidin-2(3H)-one]	< 10 µM
COc1cccc(COc2nc(N[C@@H](CO)CC(C)C)c3ncc(=O)[nH]c3n2)c1Cl [Example 16, 2-[(2-Chloro-3-methoxybenzyl)oxy]-4-{[(1R)-1-(hydroxymethyl)-3-methylbutyl]amino}pteridin-7(8H)-one]	< 10 µM
Cc1cccc(COc2nc(NC3(CO)CCCC3)c3sc(=O)[nH]c3n2)c1 [Example 34, 7-{[1-(Hydroxymethyl)cyclopentyl]amino}-5-[(3-methylbenzyl)oxy][1,3]thiazolo[4,5-d]pyrimidin-2(3H)-one]	< 10 µM
CC(C)CC(CO)N(C)c1nc([S+]([O-])Cc2ccc(Br)cc2F)nc2nc(N)sc12 [Example 10, (2R)-[{2-Amino-5-[(4-bromo-2-fluorobenzyl)-(RS,SS)-sulfinyl][1,3]thiazolo[4,5-d]pyrimidin-7-yl}(methyl)amino]-4-methylpentan-1-ol]	< 10 µM
CC(C)C[C@H](CO)Nc1nc(OCCc2ccccc2)nc2[nH]c(=O)cnc12 [Example 17, 4-{[(1R)-1-(Hydroxymethyl)-3-methylbutyl]amino}-2-(2-phenylethoxy)pteridin-7(8H)-one]	< 10 µM
N#Cc1ccc(COc2nc(NC3(CO)CCCC3)c3sc(=O)[nH]c3n2)cc1 [Example 40, 4-{[(7-{[1-(Hydroxymethyl)cyclopentyl]amino}-2-oxo-2,3-dihydro[1,3]thiazolo[4,5-d]pyrimidin-5-yl)oxy]methyl}benzonitrile]	< 10 µM
COc1ccccc1COc1nc(NC2(CO)CCCC2)c2sc(=O)[nH]c2n1 [Example 38, 7-{[1-(Hydroxymethyl)cyclopentyl]amino}-5-[(2-methoxybenzyl)oxy][1,3]thiazolo[4,5-d]pyrimidin-2(3H)-one]	< 10 µM
CCC[C@H](CO)Nc1nc(O[C@@H](C)c2ccccc2)nc2[nH]c(=O)sc12 [Example 29, 7-{[(1R)-1-(Hydroxymethyl)butyl]amino}-5-{[(1S)-1-phenylethyl]oxy}[1,3]thiazolo[4,5-d]pyrimidin-2(3H)-one]	< 10 µM
COc1cccc(COc2nc(N[C@@H](CO)CC(C)C)c3sc(=O)[nH]c3n2)c1 [Example 26, 7-{[(1R)-1-(Hydroxymethyl)-3-methylbutyl]amino}-5-[(3-methoxybenzyl)oxy][1,3]thiazolo[4,5-d]pyrimidin-2(3H)-one]	< 10 µM
CC(C)C[C@H](CO)Nc1nc(OCCOc2ccccc2)nc2nc(N)sc12 [Example 4, (2R)-2-{[2-Amino-5-(2-phenoxyethoxy)[1,3]thiazolo[4,5-d]pyrimidin-7-yl]amino}-4-methylpentan-1-ol]	< 10 µM
COc1cccc(COc2nc(N[C@@H](CO)CC(C)C)c3sc(N)nc3n2)c1 [Example 2, (2R)-2-({2-Amino-5-[(3-methoxybenzyl)oxy][1,3]thiazolo[4,5-d]pyrimidin-7-yl}amino)-4-methylpentan-1-ol]	< 10 µM
O=c1[nH]c2nc(OCc3ccc(Cl)cc3)nc(NC3(CO)CCCC3)c2s1 [Example 37, 5-[(4-Chlorobenzyl)oxy]-7-{[1-(hydroxymethyl)cyclopentyl]amino}[1,3]thiazolo[4,5-d]pyrimidin-2(3H)-one]	< 10 µM
CC(C)C[C@H](CO)Nc1nc(OCCOc2ccccc2)nc2[nH]c(=O)cnc12 [Example 18, 4-{[(1R)-1-(Hydroxymethyl)-3-methylbutyl]amino}-2-(2-phenoxyethoxy)pteridin-7(8H)-one]	< 10 µM
CC(C)C[C@H](CO)Nc1nc(OCc2ccccc2Cl)nc2[nH]c(=O)cnc12 [Example 19, 2-[(2-Chlorobenzyl)oxy]-4-{[(1R)-1-(hydroxymethyl)-3-methylbutyl]amino}pteridin-7(8H)-one]	< 10 µM
CC(C)CC(CO)Nc1nc([S+]([O-])Cc2ccccc2Cl)nc2[nH]c(=O)sc12 [Example 47, 5-[(2-Chlorobenzyl)-(RS,SS)-sulfinyl]-7-{[(1R)-1-(hydroxymethyl)-3-methylbutyl]amino}[1,3]thiazolo[4,5-d]pyrimidin-2(3H)-one]	< 10 µM
COc1cccc(COc2nc(NC3(CO)CCCC3)c3sc(=O)[nH]c3n2)c1 [Example 39, 7-{[1-(Hydroxymethyl)cyclopentyl]amino}-5-[(3-methoxybenzyl)oxy][1,3]thiazolo[4,5-d]pyrimidin-2(3H)-one]	< 10 µM
